Drawing on ChEMBL document CHEMBL6103541, “Ringing medicinal chemistry: The importance of 3-membered rings in drug discovery” (Bioorg Med Chem, 2024), this text covers MIC for one molecule.

Converted amounts (≈) assume the structure as drawn.

For one test, the system named is Pseudomonas aeruginosa. In words: Antibacterial activity against Pseudomonas aeruginosa ATCC 15442 assessed as reduction in bacterial cell growth incubated for 18 hrs by two fold serial microdilution method. Format: functional. In general terms: Dilution methods test growth across graded concentrations, often in twofold steps.
The test system of the next test is Escherichia coli. As to the kind of experiment: Antibacterial activity against Escherichia coli assessed as reduction in bacterial growth by broth microdilution method. Format: functional.

Broadly, the MIC is the smallest concentration in the dilution series that meets the test's criterion for growth inhibition. Turning to `O=C(O)c1cn(C2CC2)c2cc(N3CCNCC3)c(F)cc2c1=O` [CIPROFLOXACIN], the MIC in the test on Pseudomonas aeruginosa and with Escherichia coli was 0.08 mg/L (≈ 0.241 µM) throughout.
